According to the supplement of paper PMC10849652:
The list shows a part of the results.

Sequences of proteins named here, by UniProt entry; tags and fusion partners are left off. A change or cut given only in a name is not applied to a line headed by its entry.
UniProt Q96LJ8: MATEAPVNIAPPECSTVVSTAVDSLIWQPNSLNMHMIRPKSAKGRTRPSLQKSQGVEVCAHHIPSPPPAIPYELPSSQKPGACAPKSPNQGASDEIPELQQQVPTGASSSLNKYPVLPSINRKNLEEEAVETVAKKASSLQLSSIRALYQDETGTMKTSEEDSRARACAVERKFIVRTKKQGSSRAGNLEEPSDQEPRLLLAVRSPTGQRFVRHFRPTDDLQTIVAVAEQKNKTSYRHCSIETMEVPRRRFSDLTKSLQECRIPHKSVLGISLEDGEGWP
UniProt Q9NNX1: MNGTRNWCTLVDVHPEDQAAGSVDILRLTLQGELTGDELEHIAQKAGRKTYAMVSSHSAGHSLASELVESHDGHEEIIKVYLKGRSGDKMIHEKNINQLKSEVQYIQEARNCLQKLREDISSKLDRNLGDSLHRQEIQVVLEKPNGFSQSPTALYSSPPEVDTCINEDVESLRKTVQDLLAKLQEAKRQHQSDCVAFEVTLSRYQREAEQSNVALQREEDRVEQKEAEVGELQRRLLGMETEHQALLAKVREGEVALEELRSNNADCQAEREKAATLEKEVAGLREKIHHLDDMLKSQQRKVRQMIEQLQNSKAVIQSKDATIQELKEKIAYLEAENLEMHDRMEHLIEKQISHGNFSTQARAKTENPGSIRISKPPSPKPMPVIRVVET
UniProt O15042: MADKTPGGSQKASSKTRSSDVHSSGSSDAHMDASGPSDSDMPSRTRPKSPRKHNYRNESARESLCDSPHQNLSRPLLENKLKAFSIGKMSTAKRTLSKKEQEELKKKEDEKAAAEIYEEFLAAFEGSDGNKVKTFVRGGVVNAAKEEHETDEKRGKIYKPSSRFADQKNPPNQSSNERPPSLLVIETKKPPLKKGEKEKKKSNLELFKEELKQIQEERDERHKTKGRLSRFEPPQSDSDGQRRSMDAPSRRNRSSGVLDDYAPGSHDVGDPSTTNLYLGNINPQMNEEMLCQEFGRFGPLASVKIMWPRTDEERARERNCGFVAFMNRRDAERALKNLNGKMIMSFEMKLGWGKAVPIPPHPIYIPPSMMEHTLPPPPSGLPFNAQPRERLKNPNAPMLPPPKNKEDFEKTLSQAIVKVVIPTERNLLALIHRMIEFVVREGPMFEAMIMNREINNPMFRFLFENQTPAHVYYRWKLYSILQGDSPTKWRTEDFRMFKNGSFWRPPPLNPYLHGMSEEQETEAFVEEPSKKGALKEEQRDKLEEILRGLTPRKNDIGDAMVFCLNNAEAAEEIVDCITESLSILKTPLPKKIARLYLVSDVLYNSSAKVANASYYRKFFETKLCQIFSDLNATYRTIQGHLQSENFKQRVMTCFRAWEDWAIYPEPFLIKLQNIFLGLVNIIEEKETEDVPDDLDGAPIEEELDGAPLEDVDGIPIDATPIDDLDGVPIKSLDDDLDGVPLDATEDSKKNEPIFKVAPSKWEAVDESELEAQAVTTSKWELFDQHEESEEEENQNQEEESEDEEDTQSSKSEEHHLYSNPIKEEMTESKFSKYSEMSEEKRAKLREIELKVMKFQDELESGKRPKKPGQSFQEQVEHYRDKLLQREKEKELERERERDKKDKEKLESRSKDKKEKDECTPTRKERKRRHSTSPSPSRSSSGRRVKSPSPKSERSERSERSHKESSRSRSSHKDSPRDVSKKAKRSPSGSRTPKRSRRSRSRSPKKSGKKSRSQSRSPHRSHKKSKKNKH
UniProt Q96B02: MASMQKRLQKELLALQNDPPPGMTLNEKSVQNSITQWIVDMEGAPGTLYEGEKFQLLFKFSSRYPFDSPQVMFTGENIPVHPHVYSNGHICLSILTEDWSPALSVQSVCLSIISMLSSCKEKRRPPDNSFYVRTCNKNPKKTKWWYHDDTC
UBE2L5, A0A1B0GUS4, UniProt A0A1B0GUS4, whole entry, looked up: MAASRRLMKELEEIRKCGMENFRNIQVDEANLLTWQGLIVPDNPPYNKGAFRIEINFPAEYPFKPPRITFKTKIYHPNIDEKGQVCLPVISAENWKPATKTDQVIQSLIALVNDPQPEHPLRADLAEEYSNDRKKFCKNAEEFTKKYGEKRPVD
UniProt Q86VQ6, whole entry, looked up: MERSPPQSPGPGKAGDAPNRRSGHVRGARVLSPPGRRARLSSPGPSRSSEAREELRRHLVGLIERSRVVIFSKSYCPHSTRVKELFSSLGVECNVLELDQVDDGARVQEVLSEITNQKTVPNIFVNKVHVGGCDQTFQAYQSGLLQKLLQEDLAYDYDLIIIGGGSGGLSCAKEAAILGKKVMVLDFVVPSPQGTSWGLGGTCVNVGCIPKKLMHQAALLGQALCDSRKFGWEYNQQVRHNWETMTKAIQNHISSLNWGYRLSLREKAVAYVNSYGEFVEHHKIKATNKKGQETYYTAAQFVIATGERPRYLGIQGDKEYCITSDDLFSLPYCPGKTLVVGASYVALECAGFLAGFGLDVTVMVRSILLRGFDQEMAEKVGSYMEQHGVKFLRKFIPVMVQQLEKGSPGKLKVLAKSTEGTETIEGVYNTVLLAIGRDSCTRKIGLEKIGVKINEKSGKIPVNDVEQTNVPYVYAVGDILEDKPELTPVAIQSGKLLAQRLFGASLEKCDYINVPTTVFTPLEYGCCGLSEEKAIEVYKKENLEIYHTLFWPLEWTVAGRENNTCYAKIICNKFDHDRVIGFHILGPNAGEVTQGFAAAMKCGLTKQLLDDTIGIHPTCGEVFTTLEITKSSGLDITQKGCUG
UniProt A2RUC4: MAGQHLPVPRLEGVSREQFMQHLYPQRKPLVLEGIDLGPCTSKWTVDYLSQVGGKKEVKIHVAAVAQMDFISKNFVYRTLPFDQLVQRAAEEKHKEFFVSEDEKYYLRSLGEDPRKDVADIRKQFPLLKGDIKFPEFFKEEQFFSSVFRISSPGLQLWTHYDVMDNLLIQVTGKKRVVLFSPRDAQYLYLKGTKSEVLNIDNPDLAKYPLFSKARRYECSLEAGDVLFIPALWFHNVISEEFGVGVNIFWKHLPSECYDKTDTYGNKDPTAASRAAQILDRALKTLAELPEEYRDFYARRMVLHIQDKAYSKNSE
UniProt Q9NNW7, whole entry, looked up: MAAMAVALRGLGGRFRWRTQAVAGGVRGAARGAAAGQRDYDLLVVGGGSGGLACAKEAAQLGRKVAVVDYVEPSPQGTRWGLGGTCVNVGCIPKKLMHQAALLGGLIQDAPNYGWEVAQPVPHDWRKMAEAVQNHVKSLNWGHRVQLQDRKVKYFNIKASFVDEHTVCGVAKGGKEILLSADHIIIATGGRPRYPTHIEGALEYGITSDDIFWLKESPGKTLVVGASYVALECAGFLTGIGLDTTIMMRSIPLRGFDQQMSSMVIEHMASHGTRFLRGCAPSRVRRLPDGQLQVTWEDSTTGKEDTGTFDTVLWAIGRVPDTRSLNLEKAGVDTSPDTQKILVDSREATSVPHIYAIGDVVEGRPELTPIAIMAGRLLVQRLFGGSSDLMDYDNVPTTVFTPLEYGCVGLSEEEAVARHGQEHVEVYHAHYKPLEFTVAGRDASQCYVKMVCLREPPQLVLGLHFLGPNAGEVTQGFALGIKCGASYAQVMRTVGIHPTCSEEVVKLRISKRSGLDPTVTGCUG
UniProt Q8NBM4: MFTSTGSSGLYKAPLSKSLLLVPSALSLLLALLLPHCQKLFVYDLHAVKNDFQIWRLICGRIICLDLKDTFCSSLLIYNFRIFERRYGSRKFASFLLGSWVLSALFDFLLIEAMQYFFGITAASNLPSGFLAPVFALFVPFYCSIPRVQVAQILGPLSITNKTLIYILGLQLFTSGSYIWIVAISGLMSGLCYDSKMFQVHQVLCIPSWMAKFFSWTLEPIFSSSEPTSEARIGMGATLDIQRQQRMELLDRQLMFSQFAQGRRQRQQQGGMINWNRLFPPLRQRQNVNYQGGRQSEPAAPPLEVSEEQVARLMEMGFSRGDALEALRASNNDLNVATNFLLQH
UniProt Q9P2K2: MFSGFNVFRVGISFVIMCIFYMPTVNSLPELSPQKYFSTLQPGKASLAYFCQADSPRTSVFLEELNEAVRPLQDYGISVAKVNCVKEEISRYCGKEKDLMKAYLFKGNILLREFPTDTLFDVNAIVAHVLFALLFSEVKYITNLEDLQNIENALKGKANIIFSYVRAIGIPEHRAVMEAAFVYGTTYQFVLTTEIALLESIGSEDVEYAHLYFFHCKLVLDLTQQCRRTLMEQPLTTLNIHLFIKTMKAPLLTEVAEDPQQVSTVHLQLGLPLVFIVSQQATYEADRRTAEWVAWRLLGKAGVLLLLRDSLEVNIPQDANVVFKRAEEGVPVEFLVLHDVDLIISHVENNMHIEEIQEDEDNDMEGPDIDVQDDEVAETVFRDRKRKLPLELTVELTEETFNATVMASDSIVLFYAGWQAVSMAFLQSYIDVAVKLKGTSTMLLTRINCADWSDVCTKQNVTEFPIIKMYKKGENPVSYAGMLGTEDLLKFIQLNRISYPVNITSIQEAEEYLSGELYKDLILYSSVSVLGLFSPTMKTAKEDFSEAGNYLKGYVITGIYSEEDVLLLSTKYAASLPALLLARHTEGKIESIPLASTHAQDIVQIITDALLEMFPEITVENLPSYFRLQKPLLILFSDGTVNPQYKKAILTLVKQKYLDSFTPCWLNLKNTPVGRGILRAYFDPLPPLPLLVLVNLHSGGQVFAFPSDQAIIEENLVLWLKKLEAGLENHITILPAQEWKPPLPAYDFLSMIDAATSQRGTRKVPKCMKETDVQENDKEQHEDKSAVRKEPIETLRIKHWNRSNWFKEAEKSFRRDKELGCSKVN
UniProt P29597: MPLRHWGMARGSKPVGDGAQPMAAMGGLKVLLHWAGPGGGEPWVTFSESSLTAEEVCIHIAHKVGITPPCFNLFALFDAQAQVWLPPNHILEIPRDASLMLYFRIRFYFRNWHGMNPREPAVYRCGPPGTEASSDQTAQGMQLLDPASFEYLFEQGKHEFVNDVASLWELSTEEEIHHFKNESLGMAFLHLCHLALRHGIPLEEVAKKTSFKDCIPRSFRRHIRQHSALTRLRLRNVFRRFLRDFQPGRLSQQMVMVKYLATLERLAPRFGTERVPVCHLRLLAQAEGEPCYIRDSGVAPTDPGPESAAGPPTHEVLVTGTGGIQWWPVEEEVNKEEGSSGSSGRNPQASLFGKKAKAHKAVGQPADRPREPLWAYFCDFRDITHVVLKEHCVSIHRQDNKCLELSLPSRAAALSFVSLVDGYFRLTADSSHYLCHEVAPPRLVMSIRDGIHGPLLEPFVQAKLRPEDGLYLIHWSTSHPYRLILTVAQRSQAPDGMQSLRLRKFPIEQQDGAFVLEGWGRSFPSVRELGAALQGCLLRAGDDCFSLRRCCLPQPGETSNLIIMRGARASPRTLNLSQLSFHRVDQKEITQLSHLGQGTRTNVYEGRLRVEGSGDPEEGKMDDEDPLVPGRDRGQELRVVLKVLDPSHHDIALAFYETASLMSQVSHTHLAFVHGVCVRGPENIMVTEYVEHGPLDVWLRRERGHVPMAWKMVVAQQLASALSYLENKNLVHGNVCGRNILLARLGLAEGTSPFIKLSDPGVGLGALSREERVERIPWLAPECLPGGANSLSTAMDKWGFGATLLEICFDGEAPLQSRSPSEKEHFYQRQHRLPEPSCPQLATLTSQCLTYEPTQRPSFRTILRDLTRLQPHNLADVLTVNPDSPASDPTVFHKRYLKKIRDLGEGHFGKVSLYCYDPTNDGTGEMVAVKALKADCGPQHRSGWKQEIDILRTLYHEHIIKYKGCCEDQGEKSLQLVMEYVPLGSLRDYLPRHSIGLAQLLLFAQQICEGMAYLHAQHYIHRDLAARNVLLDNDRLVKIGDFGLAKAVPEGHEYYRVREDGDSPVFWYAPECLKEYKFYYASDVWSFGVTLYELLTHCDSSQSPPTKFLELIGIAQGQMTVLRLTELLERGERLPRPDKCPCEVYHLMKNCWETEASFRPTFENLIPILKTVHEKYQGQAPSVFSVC
UniProt Q86VQ3: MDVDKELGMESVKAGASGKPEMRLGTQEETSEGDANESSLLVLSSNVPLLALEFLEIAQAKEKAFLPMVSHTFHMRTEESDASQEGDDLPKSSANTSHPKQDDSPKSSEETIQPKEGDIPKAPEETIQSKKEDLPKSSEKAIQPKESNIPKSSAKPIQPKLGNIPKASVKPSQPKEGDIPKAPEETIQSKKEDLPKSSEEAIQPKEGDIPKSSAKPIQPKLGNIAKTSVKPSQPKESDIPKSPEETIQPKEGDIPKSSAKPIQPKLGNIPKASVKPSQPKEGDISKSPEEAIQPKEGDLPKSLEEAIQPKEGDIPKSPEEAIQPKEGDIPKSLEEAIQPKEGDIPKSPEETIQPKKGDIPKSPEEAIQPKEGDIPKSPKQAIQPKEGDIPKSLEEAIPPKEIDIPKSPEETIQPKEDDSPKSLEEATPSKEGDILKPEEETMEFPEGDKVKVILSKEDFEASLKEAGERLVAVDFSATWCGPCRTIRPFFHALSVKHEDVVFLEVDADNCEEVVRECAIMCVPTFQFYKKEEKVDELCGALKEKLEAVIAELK

compound: NC1(c2ccc(-c3nc4ccn5c(=O)[nH]nc5c4cc3-c3ccccc3)cc2)CCC1; test: log2 fold change, soluble protein after heating vs DMSO (PISA); higher = thermal stabilisation; K562 lysate, 10 uM; active = over 0.2 and 3.5 SD of the protein, either way, in both replicates (recomputed)
Method in brief: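 Soluble protein was defined as the supernatant remaining after 21,000xg for 90 min, following pooling of heated aliquots and adjustment to 0.5% NP-40 at 4°C. Before that, crude K562 extract at 1 mg/mL protein in PBS pH 7.4 with 1 mM MgCl2 was treated with 10 μM compound for 30 min and heated for 3 min across 48°C-58°C. Quantification used TMTpro 16plex LC-MS/MS with channel sums equalised, and values are log-two fold changes in thermal stability relative to solvent controls from duplicates.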

log2 fold change, inactive:
UBXN10 (UniProt Q96LJ8) 0.014
TUFT1 (UniProt Q9NNX1) -0.012
UBR4 isoform 4 (UniProt Q5T4S7) 0.049
TTYH3 isoform 4 (UniProt Q9C0H2) 0.09
U2SURP isoform 2 (UniProt O15042) 0.229
UBA7 (UniProt P41226) -0.103
UBE2W isoform 3 (UniProt Q96B02) -0.218
UBE2L5, A0A1B0GUS4 0.091
UBE2K (UniProt D6RDM7) 0.069
TXNRD3 (UniProt Q86VQ6) 0.021
TYW5 (UniProt A2RUC4) 0.125
TXNRD2 isoform 3 (UniProt Q9NNW7) -0.228
UBAC2 (UniProt Q8NBM4) -0.028
TXNDC16 (UniProt Q9P2K2) 0.073
TYK2 (UniProt P29597) -0.122
UCHL5 (UniProt Q5LJA9) 0.006
TXNDC2 (UniProt Q86VQ3) -0.042
UBQLN1 isoform 2 (UniProt Q9UMX0) 0
UBA2 (UniProt U3KQ93) -0.014
UBQLN1 (UniProt H0YEZ9) 0.042
TUBB6 (UniProt K7ES63) -0.008
UBXN2A (UniProt P68543) -0.055

A section taken from the entries so far, for reference:
log2 fold change, inactive:
UBAC2 (UniProt Q8NBM4) -0.028
TXNDC16 (UniProt Q9P2K2) 0.073
